SMILES strings stand for the structures.

This data set concerns canine esophagus tissue. The experiment in a line: Esophageal irritation potential, dog model (esophageal infusion in simulated gastric juice, histopathology). Type of data set: in vivo. As for the experimental part: The esophageal irritation potential of the bisphosphonates is evaluated using a dog model.
The following solutions are prepared:
(1) simulated gastric juice (pH about 2), i.e. the control solution.
(5) simulated gastric juice (pH about 2) containing about 0.20 mg/mL of risedronate sodium on a risedronic acid active basis.
(6) simulated gastric juice (pH about 2) containing about 4.0 mg/mL of tiludronate disodium on a tiludronic acid active basis.
The simulated gastric juice is prepared by dissolving about 960 mg of pepsin (L-585,228000B003, Fisher Chemical) in about 147 mL of 0.90 (wt %) NaCl (aqueous), adding about 3 mL of 1.0 M HCl (aqueous), and adjusting the volume to about 300 mL with deionized water. The pH of the resulting solution is measured and if necessary is adjusted to about 2 using 1.0 M HCl (aqueous) or 1.0 M NaOH (aqueous).
The animals used in the experiments are anesthetized and administered about 50 mL of the appropriate solution over about 30 minutes by infusion into the esophagus using an infusion pump and a rubber catheter. The following treatment experiments are run:
Group 1: This control group contains four animals. Each animal is administered a dosage of about 50 mL of simulated gastric juice [solution (1)] on each of five consecutive days. The animals are sacrificed immediately after the last dose is administered.
Group 2: This group contains four animals. […]

`NCCCC(O)(P(=O)(O)O)P(=O)(O)O` [Alendronate, 4-amino-1-hydroxybutylidene-1,1-bisphosphonic acid monosodium trihydrate]: the “Esophageal irritation versus low concentration dosages on consecutive days (Group 2)” value was “considerably less esophageal irritation” (single high concentration dosage (Groups 3 and 4), comparable to control Group 1); “consideraly less esophageal irritation” (single high concentration on a weekly basis (Group 5)).

The record behind these values is patent publication US6544967B2, “Method for inhibiting bone resorption” (Merck & Co., Inc., priority 1997, dated 2003).
